pIC50: −log10 of the molar value.
Test system: HT-29
Assay: Antiproliferative activity against human HT-29 cells after 96 hrs by MTT assay
Format: functional, cell-based
Details: HT-29, 96 h
Summary of the method: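 HT-29 (ATCC HTB 38) in RPMI 1640 + 10% fetal bovine serum, gentamicin 50 µg/ml; seeded 4000 cells/cm2, 200-µl cultures with or without agent, 96 h. MTT (5 mg/ml in medium, 75 µl) added for 90 min; formazan read at 570 nm. Absorbance as percent of untreated wells; IC50 by linear regression of logit-transformed data.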

## COc1cc2c(c(OC)c1OC)-c1ccc(OC)c(=O)cc1[C@@H](NC(C)=O)CC2 [COLCHICINE]
  pIC50: 7.74

From ChEMBL document CHEMBL1147285, “A mammalian cell agar-diffusion assay for the detection of toxic compounds” (J Nat Prod, 1989)
